# Where “and” joins values, the source holds several entries; their conditions need not be identical. Equal entries are not always repeated. This is one part of the list. The main result of the screen is listed elsewhere. These columns were measured beside it and carry no call. The list favours compounds with an active or inconclusive main result. Potencies come from curve fits of mixed quality, noted in brackets.
# Experiment: qHTS Assay for Lipid Storage Modulators in Drosophila S3 Cells;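 on cell number change: cells counted by Cell Tracker Red CMTPX staining in the red channel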
# Details: BODIPY lipid droplet fluorescence, 18-24 h; for cell number change: measured here: cell count max response, cells fed with added oleic acid
# How it was run: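 Laser-scanning cytometry quantifies lipid droplet accumulation (500–530 nm total intensity; droplet/cell object ratio) in oleic acid-fed (400 uM added) Drosophila S3 cells treated with a concentration series. 20 uM Triacsin C defined 100% inhibition.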
# [1] = measured here: cell number channel AC50, cells fed with added oleic acid
# [2] = measured here: lipid fluorescence (Fed channel) AC50, cells fed with added oleic acid
smiles,measurement,setting,value
CCn1c(O)c(/C(C)=N/N2CCCCC2c2cccnc2)c(=O)[nH]c1=S (configuration not stated),cell number change,,41.2%
same,AC50,[1],"29.1 µM [rising, single point]"
same,AC50,[2],"5.17 µM [rising, full curve, poor fit]"
CN1CCN(c2ccc(F)cc2N)CC1,cell number change,,-14.5%
same,AC50,[2],"4.11 µM [falling, single point]"
CCNC(=O)NC(=O)C(C)OC(=O)c1c(C)nn(Cc2ccccc2Cl)c1Cl (configuration not stated),cell number change,,4.7%
same,AC50,[2],"10.3 µM [falling, partial curve]"
CC12CN3CCN(C1)CC(C)(C3)C2=NO,cell number change,,-26.2%
same,AC50,[2],"4.61 µM [falling, full curve, poor fit]"
COc1ccc(N=Cc2c(O)n(C)c(=O)[nH]c2=O)cc1,cell number change,,3.86%
same,AC50,[2],"16.4 µM [falling, single point]"
S=c1[nH]c2ccccc2[nH]1,cell number change,,24.8%
CCN(CC)CCNCc1nc2ccccc2c(=O)n1-c1ccc(F)cc1,cell number change,,5.71%
same,AC50,[2],"0.013 µM [falling, full curve, poor fit]"
C[N+]1(C)C2CCC1CC(OC(=O)C(CO)c1ccccc1)C2 (configuration not stated),cell number change,,16.6%
same,AC50,[1],"2.59 µM [rising, partial curve]"
O=C(CNC1CCCCC1)N1CCC2(CC1)OCCO2,cell number change,,9.64%
same,AC50,[2],"1.84 µM [falling, partial curve]"
Cc1ccccc1-n1c(O)c(C=Nc2ccc3c(c2)OCO3)c(=O)[nH]c1=O,cell number change,,4.35%
same,AC50,[2],"0.103 µM [rising, full curve, poor fit]"
CCOP(=O)(OCC)c1cccc(P(=O)(c2ccccc2)c2ccccc2)c1O,AC50,[1],"3.26 µM [falling, partial curve]"
Cc1ccc2c(c1)CC1(CN2C)C(=O)NC(=O)N(CCc2ccccc2)C1=O (configuration not stated),cell number change,,52.2%
same,AC50,[1],"1.3 µM [rising, partial curve]"
same,AC50,[2],"3.26 µM [rising, partial curve]"
COC(=O)C1=C(c2ccc(OCc3ccccc3)cc2)C[C@@H]2CC[C@H]1N2C(=O)NCc1ccc(N(C)C)cc1,cell number change,,-38.7%
same,AC50,[1],"20.6 µM [falling, partial curve, poor fit]"
CC(Cc1ccccc1)NC(=O)C(c1ccc(N)cc1)c1ccc(N)cc1 (configuration not stated),cell number change,,8.07%
O=c1[nH]c(=O)n(C2CCCCCC2)c(O)c1C=NC1CCN(Cc2ccccc2)CC1,cell number change,,-0.526%
same,AC50,[2],"6.51 µM [rising, single point]"
CCN1CCN(C(=O)COc2ccc(S(=O)(=O)N3CCOCC3)cc2Cl)CC1,cell number change,,7.69%
CCN(CC)CCN=Cc1c(O)n(Cc2ccccc2)c(=O)[nH]c1=O,cell number change,,-51.5% and -47.2%
same,AC50,[1],"14.6 µM [falling, partial curve] and 25.9 µM [falling, single point]"
same,AC50,[2],"13 µM [falling, partial curve, poor fit]"
O=C(c1cc(-c2ccccc2)on1)N1CCC2(CC1)OCCO2,cell number change,,4.07%
Cc1ccc(N2C(=O)NC(=O)/C(=C\c3ccc([N+](=O)[O-])o3)C2=O)cc1,cell number change,,-43.9%
same,AC50,[1],"0.164 µM [falling, full curve]"
same,AC50,[2],"14.6 µM [falling, partial curve]"
Fc1ccc(Cn2nnnc2C(c2ccc(Cl)cc2)N2CC=C(c3ccc(F)cc3)CC2)cc1 (configuration not stated),cell number change,,121%
same,AC50,[1],"29.1 µM [rising, single point]"
same,AC50,[2],"20.6 µM [rising, single point]"
CC(C)(C)C(O)C(Oc1ccc(Cl)cc1)n1cncn1 (configuration not stated),cell number change,,55.9%
same,AC50,[1],"2.06 µM [rising, full curve]"
same,AC50,[2],"2.31 µM [rising, full curve]"
CC1(c2ccccc2)NCCN2C(=O)CSC21 (configuration not stated),cell number change,,34.3%
same,AC50,[1],"29.1 µM [rising, single point]"
COC(=O)C1=C(c2ccc(-c3ccccc3)c(F)c2)C[C@@H]2CC[C@H]1N2C(=O)NC1CCCCC1,cell number change,,-5.17%
same,AC50,[2],"1.16 µM [falling, partial curve]"
O=C1Nc2ccccc2/C1=C/c1nc2ccccc2c(=O)n1-c1ccc(O)cc1,cell number change,,-37.6%
same,AC50,[1],"29.1 µM [falling, single point]"
same,AC50,[2],"29.1 µM [falling, single point]"
c1cncc(C2CC(c3cccs3)n3ncnc3N2)c1 (configuration not stated),AC50,[1],"0.731 µM [rising, partial curve]"
same,AC50,[2],"0.259 µM [rising, full curve]"
Cc1ccccc1-n1c(C)nc2sccc2c1=O,cell number change,,-6.98%
CCc1nnc(NS(=O)(=O)c2ccc(N=Cc3c(O)n(-c4ccc(Cl)cc4)c(=O)[nH]c3=O)cc2)s1,cell number change,,-20.1%
same,AC50,[2],"16.4 µM [falling, single point]"
CC(C)n1c(=O)c(C=Nc2ccc(Br)cc2)c(O)n(Cc2ccco2)c1=O,AC50,[2],"5.8 µM [rising, full curve, poor fit]"
Cc1cccc([N+](=O)[O-])c1,cell number change,,17.6%
same,AC50,[1],"0.164 µM [falling, full curve]"
same,AC50,[2],"0.103 µM [rising, single point]"
COc1ccccc1CCNC1CCCC(C)C1 (configuration not stated),cell number change,,-4.61%
same,AC50,[2],"0.0651 µM [falling, full curve, poor fit]"
O=c1c2ccccc2[se]n1-c1ccccc1,cell number change,,-84.9%
same,AC50,[1],"20.6 µM [falling, partial curve]"
same,AC50,[2],"16.4 µM [falling, partial curve]"
CN1CCN(c2ccccc2N)CC1,cell number change,,61.6%
same,AC50,[1],"16.4 µM [rising, single point]"
same,AC50,[2],"6.51 µM [falling, single point]"
CCOC(=O)N1CCN(C(=O)C(CC(C)C)NS(=O)(=O)c2ccc3c(c2)oc(=O)n3C)CC1 (configuration not stated),AC50,[1],"10.3 µM [rising, partial curve]"
C[n+]1c(-c2ccccc2)c2cc(N)ccc2c2ccc(N)cc21,cell number change,,-15.2%
O=C(Oc1c(Cl)cc(Cl)c2ccccc12)N1CCCCC1,AC50,[1],"0.13 µM [falling, full curve, poor fit]"
same,AC50,[2],"1.16 µM [falling, full curve]"
O=C(Cn1ncc2c3ccccc3n(Cc3ccccc3F)c2c1=O)N1CCC2(CC1)OCCO2,cell number change,,-18%
same,AC50,[2],"1.03 µM [rising, single point]"
CCOc1ccc(C2SCC(=O)Nc3c2c(C)nn3C2CCOC(C)(C)C2)cc1 (configuration not stated),cell number change,,7.28%
same,AC50,[2],"32.6 µM [falling, single point]"
CN1C(=O)N(C)C(=O)C2(Cc3c(nc4ccccn4c3=O)N3CCc4ccccc4C32)C1=O (configuration not stated),cell number change,,1.43%
same,AC50,[2],"0.00461 µM [rising, full curve, poor fit]"
Clc1ccc(OCC#CCN2CCOCC2)cc1,cell number change,,-10%
C1=C(c2c[nH]c3ccccc23)CCN(Cc2ccccc2)C1,cell number change,,-40.1%
same,AC50,[1],"7.31 µM [falling, partial curve]"
same,AC50,[2],"5.8 µM [falling, full curve]"
Clc1ccc(NC2=NCCCS2)cc1Cl,cell number change,,10.3%
COC(=O)C1=C(c2ccc(F)cc2OCc2ccccc2)C[C@@H]2CC[C@H]1N2C(=O)N1CCCC1,AC50,[2],"16.4 µM [falling, single point]"
O=C(CN1CCN(C(=O)COc2cccc(F)c2)CC1)Nc1ccc(Cl)c(C(F)(F)F)c1,cell number change,,-31.7%
same,AC50,[1],"29.1 µM [falling, single point]"
COC(=O)C1=C(c2ccc(OC(F)(F)F)cc2)C[C@@H]2CC[C@H]1N2C(=O)NCC1CC1,cell number change,,-17.2%
same,AC50,[2],"0.146 µM [rising, single point]"
CN[C@H]1C[C@H]2O[C@@](C)([C@H]1OC)n1c3ccccc3c3c4c(c5c6ccccc6n2c5c31)C(=O)NC4,cell number change,,-72.4%
same,AC50,[1],"9.2 µM [falling, partial curve]"
same,AC50,[2],"8.2 µM [falling, partial curve]"
COc1ccc(N=C(C)c2c(O)n(C)c(=O)n(C)c2=O)c(OC)c1,cell number change,,-17.6%
same,AC50,[2],"2.91 µM [falling, single point]"
CNC(=S)N1CCn2cccc2C1c1cccnc1 (configuration not stated),cell number change,,11.6%
Cc1cccc(N2C(=O)NC(=O)/C(=C\C=C\c3ccco3)C2=O)c1,cell number change,,-60.9%
same,AC50,[1],"14.6 µM [falling, partial curve]"
same,AC50,[2],"20.6 µM [falling, single point]"
CCOC(=O)C1(c2ccccc2)CCN(CCC(=O)Nc2cccc(Br)c2)CC1,cell number change,,-93.1%
same,AC50,[1],"18.4 µM [falling, partial curve]"
same,AC50,[2],"29.1 µM [falling, single point]"
CCOc1cc(CNCCc2c[nH]c3ccccc23)cc(Cl)c1OC,cell number change,,-66.6%
same,AC50,[1],"25.9 µM [falling, partial curve]"
same,AC50,[2],"20.6 µM [falling, partial curve]"
CC(C)CCNC(=O)c1c(N)n(Cc2ccc3c(c2)OCO3)c2nc3ccccc3nc12,AC50,[1],"5.8 µM [rising, partial curve, poor fit]"
CCOP(=O)(OCC)C(Nc1cccc([N+](=O)[O-])c1)c1ccc(OC)cc1 (configuration not stated),AC50,[1],"0.00411 µM [falling, full curve, poor fit]"
O=C(CNC(=O)OCc1ccccc1)Nc1ccc(Br)cc1C(=O)c1ccccc1,AC50,[2],"16.4 µM [falling, partial curve]"
O=C(CCc1nc(-c2ccccc2F)no1)N1CCC2(CC1)OCCO2,cell number change,,105%
same,AC50,[1],"13 µM [rising, partial curve]"
same,AC50,[2],"6.51 µM [rising, single point]"
CCOC(=O)c1cc(C)sc1/N=C/C1C(=O)NC(=S)NC1=O,cell number change,,-21%
Cc1ccnc(-n2c(C)cc(C=C3C(=O)N(C)C(=S)N(C)C3=O)c2C)c1,AC50,[2],"4.61 µM [falling, full curve, poor fit]"
COC(=O)C1=C(c2ccc(C(C)=O)cc2)C[C@@H]2CC[C@H]1N2C(=O)NCc1ccc2c(c1)OCO2,cell number change,,-12%
same,AC50,[2],"0.517 µM [rising, full curve, poor fit]"

# A different layout for some results above.
smiles	measurement	setting	value
CC12CN3CCN(C1)CC(C)(C3)C2=NO	AC50	[2]	4.61 µM [falling, full curve, poor fit]
Cc1ccccc1-n1c(O)c(C=Nc2ccc3c(c2)OCO3)c(=O)[nH]c1=O	AC50	[2]	0.103 µM [rising, full curve, poor fit]
CC(C)(C)C(O)C(Oc1ccc(Cl)cc1)n1cncn1 (configuration not stated)	AC50	[2]	2.31 µM [rising, full curve]
COC(=O)C1=C(c2ccc(-c3ccccc3)c(F)c2)C[C@@H]2CC[C@H]1N2C(=O)NC1CCCCC1	AC50	[2]	1.16 µM [falling, partial curve]
C[n+]1c(-c2ccccc2)c2cc(N)ccc2c2ccc(N)cc21	cell number change		-15.2%
O=C(Oc1c(Cl)cc(Cl)c2ccccc12)N1CCCCC1	AC50	[1]	0.13 µM [falling, full curve, poor fit]
O=C(CCc1nc(-c2ccccc2F)no1)N1CCC2(CC1)OCCO2	AC50	[1]	13 µM [rising, partial curve]

# Reference: PubChem BioAssay AID2685 (National Center for Advancing Translational Sciences (NCATS), 2010)
